No constants are given. Whether binding was seen depends on the method and setting. In cells and extracts the contact can be indirect. Binding calls can cover weak binding; strength is not graded here. Tags and fused reporters may be left off the sequences shown.
Target: FLAG-KDM4B deletion mutant lacking the JmjN domain (UniProt O94953)
Assay: co-IP; transfected cells (293T named in the methods); NP-40 lysis buffer (10 mM Tris pH 7.9, 150 mM NaCl, 1 mM EDTA, 5% glycerol); immunoprecipitation with anti-FLAG antibody, immunoblot with anti-HA antibody

Protein sequences, listed by entry. Tags and fused reporters are not part of them. Lines headed by an entry give the natural chain unless they say otherwise; changes in a name come on top.
UniProt O94953: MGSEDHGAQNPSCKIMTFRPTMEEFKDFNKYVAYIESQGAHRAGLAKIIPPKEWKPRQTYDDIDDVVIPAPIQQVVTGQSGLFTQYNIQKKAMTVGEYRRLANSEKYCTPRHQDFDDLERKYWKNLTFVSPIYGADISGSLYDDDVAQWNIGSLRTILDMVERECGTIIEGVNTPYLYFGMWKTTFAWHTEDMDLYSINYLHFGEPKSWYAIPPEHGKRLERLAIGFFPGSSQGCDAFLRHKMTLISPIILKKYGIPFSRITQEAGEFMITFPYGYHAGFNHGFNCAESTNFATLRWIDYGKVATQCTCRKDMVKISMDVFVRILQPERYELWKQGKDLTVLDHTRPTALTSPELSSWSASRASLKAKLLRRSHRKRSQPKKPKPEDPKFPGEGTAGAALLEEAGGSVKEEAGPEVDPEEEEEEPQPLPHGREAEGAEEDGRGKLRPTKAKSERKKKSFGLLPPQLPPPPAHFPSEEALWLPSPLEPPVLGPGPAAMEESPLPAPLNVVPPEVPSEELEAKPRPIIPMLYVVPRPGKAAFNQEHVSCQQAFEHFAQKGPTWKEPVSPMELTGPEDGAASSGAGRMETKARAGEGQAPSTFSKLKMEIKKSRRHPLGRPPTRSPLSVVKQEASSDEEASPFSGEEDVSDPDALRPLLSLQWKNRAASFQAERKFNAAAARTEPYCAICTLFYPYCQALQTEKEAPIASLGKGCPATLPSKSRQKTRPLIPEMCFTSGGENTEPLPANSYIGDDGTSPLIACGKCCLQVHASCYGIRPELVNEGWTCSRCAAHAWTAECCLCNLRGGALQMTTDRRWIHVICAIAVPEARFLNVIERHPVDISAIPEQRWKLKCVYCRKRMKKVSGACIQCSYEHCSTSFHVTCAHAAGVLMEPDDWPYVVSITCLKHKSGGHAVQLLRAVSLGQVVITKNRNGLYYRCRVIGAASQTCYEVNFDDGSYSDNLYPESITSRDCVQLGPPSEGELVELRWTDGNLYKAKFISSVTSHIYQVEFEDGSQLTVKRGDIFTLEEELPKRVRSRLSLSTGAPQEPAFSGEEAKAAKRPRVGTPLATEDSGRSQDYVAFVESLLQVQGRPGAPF

B1: HA-CCAR1 (protein, UniProt Q8CH18 1-1146)
chain: MAQFGGQKNPPWATQFTATAVSQPAALGVQQPSLLGASPTIYTQQTALAAAGLTTQTPANYQLTQTAALQQQAAAVLQQQYSQPQQALYSVQQQLQQPQQTILTQPAVALPTSLSLSTPQPAAQITVSYPTPRSSQQQTQPQKQRVFTGVVTKLHDTFGFVDEDVFFQLGAVKGKTPQVGDRVLVEATYNPNMPFKWNAQRIQTLPNQNQSQTQPLLKTPTAVIQPIVPQTTFGVQAQPQPQSLLQAQISAASITPLLQTQPQPLLQQPQQKAGLLQPPVRIVSQPQPARRLDPPSRFSGRNDRGDQVPNRKDDRSRERDRERRRSRERSPQRKRSRERSPRRERERSPRRVRRVVPRYTVQFSKFSLDCPSCDMMELRRRYQNLYIPSDFFDAQFTWVDAFPLSRPFQLGNYCNFYVMHREVESLEKNMAVLDPPDADHLYSAKVMLMASPSMEDLYHKSCALAEDPQDLRDGFQHPARLVKFLVGMKGKDEAMAIGGHWSPSLDGPNPEKDPSVLIKTAIRCCKALTGIDLSVCTQWYRFAEIRYHRPEETHKGRTVPAHVETVVLFFPDVWHCLPTRSEWETLSRGYKQQLVEKLQGERKKADGEQDEEEKDDGEVKEIATPTHWSKLDPKAMKVNDLRKELESRALSSKGLKSQLIARLTKQLKIEEQKEEQKELEKSEKEEEDEDDKKSEDDKEEEERKRQEEVERQRQERRYILPDEPAIIVHPNWAAKSGKFDCSIMSLSVLLDYRLEDNKEHSFEVSLFAELFNEMLQRDFGVRIYKSLLSLPEKEDKKDKEKKSKKEERKDKKEEREDDIDEPKPKRRKSGDDKDKKEDRDERKKEEKRKDDSKDDDETEEDNNQDEYDPMEAEEAEDEDDDREEEEVKRDDKRDVSRYCKDRPAKDKEKEKPQMVTVNRDLLMAFVYFDQSHCGYLLEKDLEEILYTLGLHLSRAQVKKLLNKVVLRESCFYRKLTDTSKDDENHEESEALQEDMLGNRLLLPTPTIKQESKDGEENVGLIVYNGAMVDVGSLLQKLEKSEKVRAEVEQKLQLLEEKTDEDGKTILNLENSNKSLSGELREVKKDLGQLQENLEVSENMNLQFENQLNKTLRNLSTVMDDIHTVLKKDNVKSEDRDEKSKENGSGV
B1 was tested. Which binding did it give?
The binding was “binds”.
